Data on 1 substance can be found in patent publication US20160138036A1.

By UniProt entry, the sequences of proteins in these tests, tags left out. Where a name states a change or a piece, a line headed by the entry shows the natural chain unless it says otherwise.
UniProt O64645: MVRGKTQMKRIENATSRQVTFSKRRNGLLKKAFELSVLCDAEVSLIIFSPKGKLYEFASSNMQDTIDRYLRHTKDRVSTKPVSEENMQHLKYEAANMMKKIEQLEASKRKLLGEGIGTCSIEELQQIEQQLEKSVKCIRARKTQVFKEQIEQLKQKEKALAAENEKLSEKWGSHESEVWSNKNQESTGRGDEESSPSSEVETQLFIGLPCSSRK

The assay deals with recombinant maltose-binding protein-SOC1 (MBP-SOC1) fusion (Arabidopsis thaliana) (UniProt O64645). In words: in vitro pull-down: MBP-SOC1 on amylose resin, 35S-labeled in vitro translated polypeptide, autoradiography.

Results are given in words; binding and its absence hold for the method and conditions named. Binding seen in cells or lysates may run through a third protein. Some entries that bind do so weakly or less than the wild type.

Consider “SOC1 (SUPPRESSOR OF OVEREXPRESSOR OF CONSTANS 1) transcription factor (from UniProt O64645 1-214)”, for which the binding result is “binds”.
